# Data published in PubChem BioAssay AID1117359 (Southern Research Institute, 2015).
# Values joined by “and” are separate entries in the source; they are usually repeats but may differ in a detail not shown here. Identical values can stand only once. Hit rate of the full screen: of about 1,500 compounds, about 460 (31%) were called active.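 Rule for the calls: active = viability at or below 80% at any tested concentration, marking the compound as toxic; inactive = the rest.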 The entries are a selection whose mix differs from that of the whole data set. Entries with a potency or affinity are not part of this list.
# Test: viability loss in THP-1 monocytes – THP-1 cells, cytotoxicity control for Vif-APOBEC3G degradation inhibitor project, dose response (AID 1117359)
# Settings: THP-1 viability, CellTiter-Glo luminescence, 72 h; at 40 µM (top of the series)
row,Compound,viability
1,COc1cc(N2C(=O)C=CC2=O)ccc1N1C(=O)C=CC1=O,inactive: 98.3%
2,O=C1NCC(O)=C1C=NC12CC3CC(CC(C3)C1)C2,inactive: 97.2%
3,CC(=O)N1CCN(c2ccc(NCc3ccccc3)cc2)CC1,inactive: 90%
4,O=C1N=NC2=C1c1c3ccccc3c(O)n1CC2,inactive: 102%
5,CCOC(=O)C1=C(O)/C(=C/c2ccc(CNC(=O)C(=O)Nc3ccc(C)cc3)o2)N=C1C,inactive: 91%
6,COC(=O)C1C(O)C(C)C(O)C(C)(O)/C=C\C=C(/C)C(=O)Nc2c(C)c(OC(C)=O)c3c(c2O)C(=O)C(C)=C2OCOC(=C23)/C(C)=C/C(C)(O)C(O)C(C)C1O (configuration not stated),inactive: 97.4%
7,O=C(Nc1ccc(Br)cn1)c1coc(=O)c(Br)c1,inactive: 107%
8,Oc1ccc(/C=N/N2CCCCC2)c(O)c1O,inactive: 111%
9,Cc1cc(/C=N/Nc2ccc([N+](=O)[O-])cn2)c(C)n1-c1ccc(C(=O)O)cc1,inactive: 106%
10,COc1ccc(N2C3=C(CC4=C2CCCC4=O)C(=O)CCC3)cc1,inactive: 96.5%
11,CN(C)c1ccc(Cc2cc3c(O)ccc(O)c3cc(Cc3ccc(N(C)C)cc3)c2=O)cc1,inactive: 85.4%
12,CCOC(=O)C1=C(COC(=O)/C=C/c2ccco2)NC(=O)NC1C (configuration not stated),inactive: 96.1%
13,O=C1NC(=S)NC1=Cc1ccco1,inactive: 103%
14,CCN(CC(=O)Nc1ccc(NC(C)=O)cc1)C(=O)C1CCCC1,inactive: 121%
15,COc1cc2[nH]c(Cl)c([N+](=O)[O-])c2cc1OC,inactive: 90.3%
16,CC(=O)Nc1ccc(NC(=O)C(C)OC(=O)CCc2c[nH]c3ccccc23)cc1 (configuration not stated),inactive: 81.5%
17,NNc1ccc([N+](=O)[O-])c2[nH][nH]c(=O)c12,inactive: 104%
18,COc1cccc(CN2CCNC(=O)C2CC(=O)NCCn2nc(C)cc2C)c1OC (configuration not stated),inactive: 93.5%
19,O=c1cc2c(=O)oc3cc(O)c(O)oc3c2c(O)c1O,inactive: 103% and inactive: 83.2%
20,CCCCOc1cccc(C(=O)NC(=S)Nc2ccc(Cl)c(C(=O)O)c2)c1,inactive: 103%
21,Cc1ccc(-n2c(-c3cc(-c4ccco4)[nH]n3)n[nH]c2=S)c(Br)c1,inactive: 104%
22,CCOC(=O)C1Nc2ccc(Br)cc2C2C=CCC12 (configuration not stated),inactive: 84.6%
23,COc1cc([N+](=O)[O-])ccc1NC(=O)Oc1ccc(NC(C)=O)cc1,inactive: 93.7%
24,CCOC(=O)C(C)N1C(=O)S/C(=C\c2ccc(-c3ccccc3C(=O)O)o2)C1=O (configuration not stated),inactive: 93.5%

row,Compound,viability
1,CC(=O)c1ccccc1NC(=O)COC(=O)CN1C(=O)C2CCCCC2C1=O (configuration not stated),inactive: 85.4%
2,CCCOc1ccc(N)cc1N,inactive: 92.5%
3,COC(=O)c1c(NC(=O)COC(=O)c2ccc(NC(=O)CC#N)cc2)sc2c1CCCCC2,inactive: 106%
4,O=C1CCCC(O)=C1N=Nc1cccc(C(=O)O)c1,inactive: 99.9%
5,O=C(NN1C(=O)/C(=C/C=C/c2ccco2)SC1=S)c1ccccc1O,inactive: 107%
6,O=C(Cn1c2[n+](c3ccc(C(F)(F)F)cc31)CCCCC2)Nc1c(F)cccc1F,inactive: 82.4%
7,N[C@@H](Cc1c[nH]c2ccccc12)C(=O)O,inactive: 93%
8,COC(=O)CCC(=O)OC1(C)C(=O)C=C2C=C3CCCN3C=C2C1=O (configuration not stated),inactive: 95%
9,O=C1/C(=C/C=C/c2ccco2)SC(=S)N1NS(=O)(=O)c1ccccc1,inactive: 105%
10,CC(=O)c1sc2nc(-c3ccco3)ccc2c1N,inactive: 101%
11,COc1cccc(/C=N/n2c(-c3cc(C)[nH]n3)n[nH]c2=S)c1,inactive: 95%
12,CC1=NN(C(N)=S)C(=O)C1N=Nc1cccc([N+](=O)[O-])c1 (configuration not stated),inactive: 102%
13,O=C1CCCC(O)=C1N=Nc1ccc(S(=O)(=O)N2CCOCC2)cc1,inactive: 107%
14,CCOC(=O)C(CC(=O)O)=C(c1ccccc1)c1ccccc1,inactive: 96.4%
15,O=[n+]1c2c(n([O-])c3cc(Br)ccc31)CCC2,inactive: 109%
16,CC(=O)Nc1cc(NC(C)=O)cc(C(=O)N2CCCC3CCCCC32)c1 (configuration not stated),inactive: 104%
17,O=C(O)c1cc(N2N=C(C(F)(F)F)/C(=C/C=C/c3ccco3)C2=O)ccc1Cl,inactive: 99.9%
18,Cc1c(N=C2C=C(Br)C(=O)C(Br)=C2)c(=O)n(-c2ccccc2)n1C,inactive: 102%
19,CCOC(=O)N1CCN(S(=O)(=O)c2ccc3c(c2)C(C)C(=O)N3)CC1 (configuration not stated),inactive: 86.9%
20,O=C(/C=C/c1ccco1)NC(=S)Nc1ccc(C(=O)O)cc1,inactive: 104%
21,O=C(NCC1CCCO1)c1c(O)c2c([nH]c1=O)CCCC2 (configuration not stated),inactive: 86.3%
22,O=c1cc(-c2ccc(O)cc2)oc2c(O)c(O)c(O)c(O)c12,inactive: 90.9%
23,Cc1ccc(C(CC(=O)NCc2ccco2)c2ccccc2)c(O)c1 (configuration not stated),inactive: 91.1%
